Laboratory results as given in PubChem BioAssay AID720504 (National Center for Advancing Translational Sciences (NCATS), 2013).
Out of some 360,000 compounds screened, about 10,000 (2.8%) were called active. This list was built around the results that the source calls inconclusive (neither active nor inactive); the mix of calls is not that of the screen. Calls follow the shape of the dose curve; as a rule, active = well fitted inhibition curve with a large enough effect; inconclusive = small, poorly fitted or top-dose-only effect; inactive = flat fitted curve, though single readings scatter. A potency beside an inconclusive call is a rough fit, not a confirmed value.

Amino acid sequences for entries named in this document (tags omitted).
UniProt P53350, whole entry, looked up: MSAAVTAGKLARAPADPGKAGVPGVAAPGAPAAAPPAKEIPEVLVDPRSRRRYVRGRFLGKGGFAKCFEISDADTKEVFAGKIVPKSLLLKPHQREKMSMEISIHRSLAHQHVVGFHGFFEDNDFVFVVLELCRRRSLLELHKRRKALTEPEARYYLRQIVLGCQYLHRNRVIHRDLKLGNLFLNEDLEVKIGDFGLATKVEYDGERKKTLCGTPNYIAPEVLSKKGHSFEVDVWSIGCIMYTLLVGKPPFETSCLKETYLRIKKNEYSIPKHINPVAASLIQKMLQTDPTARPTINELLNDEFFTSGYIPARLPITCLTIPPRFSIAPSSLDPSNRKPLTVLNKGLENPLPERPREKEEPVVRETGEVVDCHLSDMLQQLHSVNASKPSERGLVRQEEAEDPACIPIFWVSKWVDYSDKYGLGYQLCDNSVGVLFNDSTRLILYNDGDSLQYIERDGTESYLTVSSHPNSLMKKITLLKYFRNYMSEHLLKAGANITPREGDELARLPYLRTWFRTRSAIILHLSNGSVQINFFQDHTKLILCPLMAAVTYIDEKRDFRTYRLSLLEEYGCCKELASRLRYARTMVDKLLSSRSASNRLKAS

target: Serine/threonine-protein kinase PLK1 (Homo sapiens) (UniProt P53350); test: qHTS for Inhibitors of PLK1-PDB (polo-like kinase 1 - polo-box domain): Primary Screen; details: Plk1 PBD binding of FITC phosphopeptide, fluorescence polarization; also: nearly all actives have a fitted effect of over 65% in size; as to max response, negative = inhibition: series mostly up to about 57 µM
% is scaled to controls: 0 for no effect and ±100 for the full control effect; potency is read from the fitted curve at half-maximal effect.

Compound | Potency | max response, negative = inhibition
Cc1cccc(C2C3=C(Nc4[nH]n(-c5ccccc5)c(=O)c42)c2ccccc2C3=O)c1 (stereo not drawn) | inconclusive: 26.7 µM [inhibitor, partial curve] | –
CCCN1CCC(=NNc2ccc(S(N)(=O)=O)cc2[N+](=O)[O-])CC1 | – | inactive: -2.26%
COc1cc(NC(=S)NCc2ccc(S(N)(=O)=O)cc2)cc(OC)c1 | inconclusive: 23.8 µM [inhibitor, partial curve] | –
COc1ccc(C2/C=C\CC(OCc3ccccc3)CC(=O)N2Cc2cccc(F)c2)cc1 (stereo not drawn) | inconclusive: 26.7 µM [inhibitor, partial curve] | –
CCOC(=O)N1CCN(C(=O)CCC(=O)c2ccc(OCC)cc2)CC1 | – | inactive: -2.61%
O=C(CCl)c1ccc(Cc2ncc(C(F)(F)F)cc2Cl)s1 | active: 2.38 µM | –
CCN=C(N/N=C/c1ccc([N+](=O)[O-])cc1)SC | – | inconclusive: -30.8% [inhibitor]
CC(=O)Nc1ccc(NC(=O)/C(=C/c2ccco2)NC(=O)c2ccccc2)cc1 | inconclusive: 16.8 µM [inhibitor, partial curve] | –
Cc1nnc(SCC2=C(C(=O)O)N3C(=O)C(NC(=O)Cn4nc(C(F)F)cc4C)C3SC2)s1 (stereo not drawn) | inconclusive: 16.8 µM [inhibitor, partial curve] | –
CCOC(=O)C1(C)/C(=N/Nc2ccccc2Cl)C(=O)C(=O)N1c1ccccc1 (stereo not drawn) | inconclusive: 21.2 µM [inhibitor, single point] | –
COc1cccc(NC(=O)CSc2nc3ccccc3n2C)c1 | active: 16.8 µM | –
COc1cc2cnc(-c3ccccc3)c(-c3ccc(C#N)cc3)c2cc1OC | – | inactive: -5.1%
C#CC(=O)N(c1ccc(OC)c(OC)c1)C(C(=O)NC1CCCC1)c1cccs1 (stereo not drawn) | inconclusive: 26.7 µM [inhibitor, partial curve] | –
CCN(CC)c1ccc2cc(NC(=O)CCC(=O)O)c(=O)oc2c1 | inconclusive: 26.7 µM [inhibitor, partial curve] | –
C=CCN1C(=O)/C(=C2/Sc3ccccc3N2C)SC1=Nc1ccccc1C | – | inactive: 0.542%
COc1ccc(NC(=O)C2C3CCC(O3)C2C(=O)O)c(C)c1 (stereo not drawn) | – | inactive: 6.95%
CC(C)CN(Cc1c(O)ccc2ccccc12)CC(C)C | inconclusive: 15 µM [inhibitor, partial curve] | –
Cc1n[nH]c(=S)n1-c1ccc(Cl)cc1 | – | inconclusive: -30.2% [inhibitor]
Cc1nc(S(=O)(=O)Nc2ccccc2C(=O)NCC2CC2)cn1C | – | inactive: -0.663%
COc1ccc(N2C(=O)CC(Sc3n[nH]c(-c4ccccc4)n3)C2=O)cc1 (stereo not drawn) | active: 26.7 µM | –
O=C(/C=C/c1ccccc1)Nc1cccc(S(=O)(=O)Nc2ccccc2F)c1 | active: 1.19 µM | –
CCOc1ccc(C2NC(=O)C(C#N)=C(S)N2c2ccc(OC)cc2)cc1OC (stereo not drawn) | inconclusive: 26.7 µM [inhibitor, partial curve] | –
CCCC(=O)Nc1cc(C)c(NC(=O)c2ccccn2)cn1 | inconclusive: 26.7 µM [inhibitor, partial curve] | –
CC(C)c1nc2sc(C(=O)O)c(N)c2c2c1CCCC2 | inconclusive: 18.9 µM [inhibitor, partial curve] | –
CCOC(=O)C1=C(C)NC(C)=C(C(=O)OCC)C1c1cc2ccc(C)cc2[nH]c1=O | – | inactive: -30.7%

Compound | Potency | max response, negative = inhibition
c1ccc(-c2cn3nc(-c4ccccc4)c(-c4ccccc4)nc3n2)cc1 | active: 26.7 µM | –
Cc1ccc(-c2nc3nc4ccccc4nc3n2Cc2ccco2)cc1 | – | inactive: -15%
COCCN(C(=O)COc1ccccc1C#N)c1c(N)n(Cc2ccccc2)c(=O)[nH]c1=O | – | inactive: -7.07%
CC(C)=C[C@@H]1C[C@H](C)[C@H]2CC[C@H](C)c3c(O)c(O)c(C)c1c32 | inconclusive: 26.7 µM [inhibitor, partial curve] | –
CSC1=NSC2=NC(=O)/C(=C\c3ccc(OC(=O)c4ccco4)cc3)C(=N)N12 | inconclusive: 26.7 µM [inhibitor, partial curve] | –
C[C@@H]1CCC2[C@](C)(CO)[C@@H](O)CC[C@]2(C)[C@@]12CCC(CO)(CCO)O2 (stereo partly drawn) | active: 26.7 µM | –
COc1cccc(-n2cc3c(c2-c2ccccc2)c(=O)n(C)c(=O)n3C)c1 | inconclusive: 18.9 µM [inhibitor, partial curve] | –
CCC(=O)/C=C1/Sc2ccc(OC)cc2N1CC | inconclusive: 26.7 µM [inhibitor, partial curve] | –
CCOc1ccc(C(=S)N2CCOCC2)cc1OC | inconclusive: 18.9 µM [inhibitor, partial curve] | –
CCOc1ccc(OCCSc2nnnn2-c2ccccc2)cc1 | inconclusive: 37.7 µM [inhibitor, single point] | –
COc1ccc(-n2cnc(=S)[nH]c2=S)cc1 | inconclusive: 29.9 µM [inhibitor, single point] | –
COc1ccc(CC2=C(O)c3ccccc3C(=O)C2=O)cc1 | inconclusive: 26.7 µM [inhibitor, single point] | –
Cc1cc(C)nc(SCCc2ccncc2)n1 | inconclusive: 29.9 µM [inhibitor, partial curve] | –
COc1cccc(N=Cc2ccc(O)cc2O)c1 | inconclusive: 8.44 µM [inhibitor, single point] | –
S=c1[nH]c2cc(Cl)c3cccnc3c2o1 | inconclusive: 26.7 µM [inhibitor, single point] | –
Cc1ccc(S(=O)(=O)N2CCC(C(=O)N3CCN(c4ccccn4)CC3)CC2)cc1C | – | inactive: -3.3%
Cc1nc(SCC(=O)NCCN2C(=O)CSC2=O)nc(C)c1C | – | inactive: -13.2%
CCCCOc1ccc2c(c1)C(=O)c1cc(O)ccc1-2 | – | inactive: -9.55%
CC(C)(C)c1nnc(NC(=O)CS(=O)(=O)Cc2ccccc2)s1 | inconclusive: 26.7 µM [inhibitor, single point] | –
CCOC(=O)CNc1nnc(SCC(=O)OCC)[nH]c1=O | inconclusive: 16.8 µM [inhibitor, partial curve] | –
Cc1cc(-c2csc(N)n2)c(C)n1Cc1ccco1 | inconclusive: 5.97 µM [inhibitor, full curve] | –
COC(=O)Nc1ccc(S(=O)(=O)N2CCC(C(=O)N3CCC(C)CC3)CC2)cc1 | active: 9.47 µM | –
COC(=O)c1c(NC(=O)c2ccc(Br)s2)sc2c1CCC2 | inconclusive: 23.8 µM [inhibitor, partial curve] | –
COc1cccc(C(=O)Nc2ccc3c(c2)C(=O)c2ccccc2C3=O)c1 | active: 26.7 µM | –
O=C(NC(=S)Nc1ccc(S(=O)(=O)N2CCOCC2)cc1)c1ccccc1[N+](=O)[O-] | active: 33.6 µM | –

Compound | Potency | max response, negative = inhibition
CNC(=O)c1nnsc1S(=O)(=O)c1ccc(Cl)cc1 | active: 11.9 µM | –
CC1(C)CC(=O)C(c2c[nH]c3ccccc23)C(=O)C1 | inconclusive: 21.2 µM [inhibitor, single point] | –
COC(=O)c1ccc(N2CCOCC2)c(NC(=O)Nc2cccc(OC)c2)c1 | inconclusive: 10.6 µM [inhibitor, partial curve] | –
Cc1cccc(C)c1NC(=O)C1CCCN1C(=O)OC(C)(C)C (stereo not drawn) | active: 23.8 µM | –
CC(C1CC2CCC1C2)n1c(-c2ccco2)n[nH]c1=S (stereo not drawn) | active: 29.9 µM | –
O=CC1=C(N2CCOCC2)/C(=C/c2ccc(Cl)cc2)CC1 | inconclusive: 23.8 µM [inhibitor, single point] | –
Cc1ccc(C(=O)OC2=CC(=O)CC(C)(C)C2)cc1 | inconclusive: 33.6 µM [inhibitor, partial curve, poor fit] | –
CCOC(=O)COn1c(=O)c(-c2cccs2)[n+]([O-])c2ccccc21 | inconclusive: 15 µM [inhibitor, partial curve] | –
COc1ccc(C(c2c(C)[nH]n(-c3ccccc3)c2=O)c2c(C)[nH]n(-c3ccccc3)c2=O)cc1OC | active: 2.67 µM | –
COc1ccc(-n2nnnc2S(=O)(=O)CC(=O)N2CCCCC2)cc1 | active: 11.9 µM | –
Cc1nn(-c2ccccc2)c(C)c1/C=N/n1c(-c2ccccc2Br)n[nH]c1=S | – | inconclusive: -32% [inhibitor]
Cc1ccc2cc3cc(C(=O)NCCCN4CCCC4=O)oc3nc2c1 | – | inactive: -10%
Cc1ccc(C(=O)CC2(O)C(=O)Nc3ccccc32)s1 (stereo not drawn) | – | inactive: -7.62%
O=C(NC(C(=O)N/N=C/c1cc([N+](=O)[O-])ccc1O)c1n[nH]c(=O)c2ccccc12)c1ccccc1 (stereo not drawn) | inconclusive: 67 µM [inhibitor, partial curve] | –
COc1ccc(CC(=O)N2CCN=C2SC)cc1 | inconclusive: 16.8 µM [inhibitor, partial curve] | –
COc1ccc2c(c1)CCCC2=O | – | inactive: -8.46%
CS(=O)(=O)N(CC(=O)NCc1ccc2c(c1)OCO2)Cc1ccccc1 | active: 8.44 µM | –
COc1ccc(C(=O)N2CCN(C(=O)C3COc4ccccc4O3)CC2)cc1OC (stereo not drawn) | – | inconclusive: -33.5% [inhibitor]
Cc1ccnc(NC(=O)CCC(=O)N(CC(=O)NC2CCCCC2)Cc2ccccc2)c1 | inconclusive: 8.44 µM [inhibitor, single point] | –
CCOC(=O)/C=C/c1ccccc1S(=O)(=O)NC(C)(C)C | inconclusive: 21.2 µM [inhibitor, partial curve] | –
Clc1ccc(-n2nnnc2Sc2ncnc3sccc23)cc1 | active: 8.44 µM | –
Cn1cccc1C(=O)NC(=O)CSc1cccc[n+]1[O-] | – | inactive: -9.33%
Cn1c(=N)n(CC(=O)c2ccc(Cl)c(Cl)c2)c2ccccc21 | – | inactive: -15.3%

Another view of some results above:
Compound	Potency	max response, negative = inhibition
S=c1[nH]c2cc(Cl)c3cccnc3c2o1	inconclusive: 26.7 µM [inhibitor, single point]	–
Cc1nn(-c2ccccc2)c(C)c1/C=N/n1c(-c2ccccc2Br)n[nH]c1=S	–	inconclusive: -32% [inhibitor]
O=C(NC(C(=O)N/N=C/c1cc([N+](=O)[O-])ccc1O)c1n[nH]c(=O)c2ccccc12)c1ccccc1 (stereo not drawn)	inconclusive: 67 µM [inhibitor, partial curve]	–
